Values from PubChem BioAssay AID743454 (Peter MacCallum Cancer Centre, 2014)
In all, the deposit lists about 18,000 reagents; shown is a random part of them. 450 of them (2.5%) were called active. 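Single biological run; no consistent viability z cut-off exists, so the class columns, not z-scores, define the calls.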 Unmarked entries are inactive.

Screen: 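Genes whose loss kills vorinostat-resistant colon cancer cells under vorinostat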 (primary screen)
Cell system: human HCT116-VR colon cancer cells, selected for vorinostat resistance
Reagents: siRNA pool against human genes, 40 nM siRNA pool
Time to read-out: vorinostat for 24 h, read-out about 72 h after transfection
Conditions: vorinostat at 2.5 µM final
Measured: 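Cell viability by CellTiter-Fluor and caspase 3/7 activity by luminescence, each scaled to mock wells per plate, duplicates averaged, then robust z-scored over all plates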
Direction: viability robust z-score: higher = more viable cells than screen typical; caspase robust z-score: higher = more caspase 3/7 activity than screen typical
Hit rule: 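Hits are knock-downs in viability class RV1/RV2 or caspase class CA1/CA2, excluding ones that killed cells in the no-drug cell-count arm; hits then retested with single siRNAs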

no.	gene	viability hit class	caspase hit class	viability robust z-score	caspase robust z-score
1	CANX	no change	no change	-2.02	-0.14
2	PAN3	no change	no change	0.06	-0.29
3	KIAA1755	no change	no change	-0.3	-0.98
4	USP11	no change (active)	CA2 (caspase activation)	-0.42	5.88
5	TNFSF11	no change	no change	-0.18	1.84
6	BCAS4	no change	no change	0.28	0.94
7	SIAH1	no change	no change	-2.55	-0.06
8	STK32A	no change	no change	-0.43	-0.64
9	RHAG	no change	no change	-0.78	4.37
10	BOLA2B	no change	no change	0.86	-0.85
11	NCF2	no change	no change	-0.21	0.24
12	MTMR10	no change	no change	0.74	-0.95
13	CHMP4C	no change	no change	0.74	-0.16
14	ZNF135	no change	no change	0.68	-0.34
15	PRMT3	no change	no change	-0.23	1.5
16	ASB18	no change	no change	1.18	-0.73
17	EIF4A3	no change	no change	-4.97	1.02
18	KDM2A	no change	no change	-0.8	1.57
19	P2RY2	no change	no change	0.3	4.9
20	PCDH1	no change	no change	0.19	-0.4
21	FGD1	no change	no change	-0.81	-0.05
22	WIPI1	no change	no change	-1.9	2.84
23	EBI3	no change	no change	-0.69	1.18

Active calls, of those listed so far:
gene	viability hit class	caspase hit class	viability robust z-score	caspase robust z-score
USP11	no change (active)	CA2 (caspase activation)	-0.42	5.88
